Assay: in vitro
Details: dog, MDCK-MDR1, pH 7.4
Protocol: The membrane permeability of the molecules of the present invention was evaluated to predict their permeability to the brain.
The specific procedure was: 1. MDCK-MDR1 cells were pre-cultured at a density of 1.56*10^6 cells/mL in a 96-well plate at 37°C for 7 days. 2. The MDCKII-MDR1 plate was taken out of the incubator, rinsed twice with pre-warmed HBSS (10 mM HEPES, pH 7.4), and then incubated at 37°C for 30 minutes. 3. The stock solution of the compound to be tested was diluted with DMSO to obtain a 0.2 mM solution, and then diluted with HBSS (10 mM HEPES, pH 7.4) to obtain a 1 µM working solution. A blank control group was also diluted with DMSO to obtain a 0.2 mM solution, and then diluted with HBSS (10 mM HEPES, pH 7.4) to obtain a 1 µM working solution. The final concentration of DMSO in the culture system was 0.5%. 4. The transport rate of the drug in the apical to basolateral direction was determined: 125 µL of the 1 µM test compound solution was added to a Transwell insert (top compartment), before immediately transferring a 50 µL sample (D0 sample) from the top comparment to a new 96-well plate. The receiving plate wells (basolateral compartment) were filled with 235 µL HBSS (10 mM HEPES, pH 7.4) and incubated at 37°C for 2 hours. 5. […]

## Cc1cc2cc(C(=O)N(Cc3ccc(C(F)(F)F)cn3)[C@H](C)c3ncccn3)ccc2nc1N [AM9747, reference compound]
  Papp A→B: 12.8 ×10⁻⁶ cm/s
  Papp B→A: 28.3 ×10⁻⁶ cm/s

Source: EP4653435A1, “PRMT5-MTA INHIBITOR” (Suzhou Puhe Biopharma Co., Ltd., priority 2023, dated 2024)
